{
  "source": "the supplement of paper PMC8728848",
  "binders": {"B1": {"name": "PhypaEULS3 (Physcomitrella patens) (protein)", "chain": "MLPVRLHCKADPNFNLAAVPGQGPVMVPFSPNDDFQVWYKDVTMSTRVKDETGSSAFSLINKATGQALRHAPEDLAQCLLADYDSNALDQTVLWTMSEDMGQGYCCIRLASQITRNLDVFRGDKKSGGVKEGSPVITFAWKKQDNQIWKMITAILEQKLISEEDLNSAVDHHHHHH"}},
  "assay_in_all_cases": "glycan array binding signal (z-score within array); higher = stronger binding",
  "conditions_in_all_cases": "glycan notation: IUPAC condensed, linker removed",
  "key": {"[1]": {"biological_target": "Fuc(a1-3)[Gal3S(b1-4)]GlcNAc6S", "method_in_brief": "(§1)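 The binding signal is a Z-score computed within each array. Data were drawn from 3228 arrays in the Consortium for Functional Glycomics database, restricted to those with a known protein sequence. Scores were averaged over arrays of the same protein sequence at different concentrations or buffers, and over linkers, and negative values can be taken as non-binding.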"}, "[2]": {"biological_target": "Fuc(a1-3)[GalNAc(b1-4)]GlcNAc", "method_in_brief": "as §1"}, "[3]": {"biological_target": "Fuc(a1-3)[GalNAc(b1-4)]GlcNAc6S", "method_in_brief": "as §1"}, "[4]": {"biological_target": "Fuc(a1-4)GlcNAc", "method_in_brief": "as §1"}, "[5]": {"biological_target": "Fuc(b1-3)GlcNAc", "method_in_brief": "as §1"}, "[6]": {"biological_target": "Gal(a1-2)Gal", "method_in_brief": "as §1"}, "[7]": {"biological_target": "Gal(a1-3)Gal", "method_in_brief": "as §1"}, "[8]": {"biological_target": "Gal(a1-3)Gal(b1-3)GlcNAc", "method_in_brief": "as §1"}, "[9]": {"biological_target": "Gal(a1-3)Gal(b1-3)GlcNAc(b1-2)Man", "method_in_brief": "as §1"}, "[10]": {"biological_target": "Gal(a1-3)Gal(b1-3)GlcNAc(b1-2)Man(a1-3)[Gal(a1-3)Gal(b1-3)GlcNAc(b1-2)Man(a1-6)]Man(b1-4)GlcNAc(b1-4)GlcNAc", "method_in_brief": "as §1"}, "[11]": {"biological_target": "Gal(a1-3)Gal(b1-3)GlcNAc(b1-3)GalNAc", "method_in_brief": "as §1"}, "[12]": {"biological_target": "Gal(a1-3)Gal(b1-3)GlcNAc(b1-6)GalNAc", "method_in_brief": "as §1"}, "[13]": {"biological_target": "Gal(a1-3)Gal(b1-3)[Fuc(a1-4)]GlcNAc(b1-2)Man(a1-3)[Gal(a1-3)Gal(b1-3)[Fuc(a1-4)]GlcNAc(b1-2)Man(a1-6)]Man(b1-4)GlcNAc(b1-4)GlcNAc", "method_in_brief": "as §1"}, "[14]": {"biological_target": "Gal(a1-3)Gal(b1-4)Glc", "method_in_brief": "as §1"}, "[15]": {"biological_target": "Gal(a1-3)Gal(b1-4)GlcNAc", "method_in_brief": "as §1"}, "[16]": {"biological_target": "Gal(a1-3)Gal(b1-4)GlcNAc(b1-2)Man", "method_in_brief": "as §1"}, "[17]": {"biological_target": "Gal(a1-3)Gal(b1-4)GlcNAc(b1-2)Man(a1-3)[Gal(a1-3)Gal(b1-4)GlcNAc(b1-2)Man(a1-6)]Man(b1-4)GlcNAc(b1-4)GlcNAc", "method_in_brief": "as §1"}, "[18]": {"biological_target": "Gal(a1-3)Gal(b1-4)GlcNAc(b1-3)GalNAc", "method_in_brief": "as §1"}, "[19]": {"biological_target": "Gal(a1-3)Gal(b1-4)GlcNAc(b1-6)GalNAc", "method_in_brief": "as §1"}, "[20]": {"biological_target": "Gal(a1-3)Gal(b1-4)[Fuc(a1-3)]GlcNAc", "method_in_brief": "as §1"}, "[21]": {"biological_target": "Gal(a1-3)Gal(b1-4)[Fuc(a1-3)]GlcNAc(b1-2)Man(a1-3)[Gal(a1-3)Gal(b1-4)[Fuc(a1-3)]GlcNAc(b1-2)Man(a1-6)]Man(b1-4)GlcNAc(b1-4)GlcNAc", "method_in_brief": "as §1"}, "[22]": {"biological_target": "Gal(a1-3)GalNAc", "method_in_brief": "as §1"}, "[23]": {"biological_target": "Gal(a1-3)[Gal(a1-4)]Gal(b1-4)GlcNAc", "method_in_brief": "as §1"}, "[24]": {"biological_target": "Gal(a1-4)Gal(b1-3)GlcNAc(b1-2)Man(a1-3)[Gal(a1-4)Gal(b1-3)GlcNAc(b1-2)Man(a1-6)]Man(b1-4)GlcNAc(b1-4)GlcNAc", "method_in_brief": "as §1"}, "[25]": {"biological_target": "Gal(a1-4)Gal(b1-4)Glc", "method_in_brief": "as §1"}, "[26]": {"biological_target": "Gal(a1-4)Gal(b1-4)GlcNAc", "method_in_brief": "as §1"}, "[27]": {"biological_target": "Gal(a1-4)Gal(b1-4)GlcNAc(b1-2)Man(a1-3)[Gal(a1-4)Gal(b1-4)GlcNAc(b1-2)Man(a1-6)]Man(b1-4)GlcNAc(b1-4)GlcNAc", "method_in_brief": "as §1"}, "[28]": {"biological_target": "Gal(a1-4)Gal(b1-4)GlcNAc(b1-3)Gal(b1-4)Glc", "method_in_brief": "as §1"}, "[29]": {"biological_target": "Gal(a1-4)GlcNAc", "method_in_brief": "as §1"}, "[30]": {"biological_target": "Gal(a1-6)Glc", "method_in_brief": "as §1"}, "[31]": {"biological_target": "Gal(b1-2)Gal", "method_in_brief": "as §1"}, "[32]": {"biological_target": "Gal(b1-3)Gal", "method_in_brief": "as §1"}, "[33]": {"biological_target": "Gal(b1-3)Gal(b1-4)GlcNAc", "method_in_brief": "as §1"}, "[34]": {"biological_target": "Gal(b1-3)GalNAc", "method_in_brief": "as §1"}, "[35]": {"biological_target": "Gal(b1-3)GalNAc(a1-3)[Fuc(a1-2)]Gal(b1-4)Glc", "method_in_brief": "as §1"}, "[36]": {"biological_target": "Gal(b1-3)GalNAc(a1-3)[Fuc(a1-2)]Gal(b1-4)GlcNAc", "method_in_brief": "as §1"}, "[37]": {"biological_target": "Gal(b1-3)GalNAc(b1-3)Gal", "method_in_brief": "as §1"}, "[38]": {"biological_target": "Gal(b1-3)GalNAc(b1-3)Gal(a1-4)Gal(b1-4)Glc", "method_in_brief": "as §1"}, "[39]": {"biological_target": "Gal(b1-3)GalNAc(b1-4)Gal(b1-4)Glc", "method_in_brief": "as §1"}, "[40]": {"biological_target": "Gal(b1-3)GalNAc(b1-4)[Neu5Ac(a2-3)]Gal(b1-4)Glc", "method_in_brief": "as §1"}, "[41]": {"biological_target": "Gal(b1-3)GlcNAc", "method_in_brief": "as §1"}, "[42]": {"biological_target": "Gal(b1-3)GlcNAc(a1-3)Gal(b1-4)GlcNAc", "method_in_brief": "as §1"}, "[43]": {"biological_target": "Gal(b1-3)GlcNAc(a1-6)Gal(b1-4)GlcNAc", "method_in_brief": "as §1"}, "[44]": {"biological_target": "Gal(b1-3)GlcNAc(b1-2)Man", "method_in_brief": "as §1"}, "[45]": {"biological_target": "Gal(b1-3)GlcNAc(b1-2)Man(a1-3)[Gal(b1-3)GlcNAc(b1-2)Man(a1-6)]Man(b1-4)GlcNAc(b1-4)GlcNAc", "method_in_brief": "as §1"}},
  "note": "This is one part of the list.",
  "data": [
    {"binder": "B1", "values": [
      {"measurement": "glycan array binding signal (z-score)", "setting": "[1]", "result": 1.26},
      {"measurement": "glycan array binding signal (z-score)", "setting": "[2]", "result": -0.945},
      {"measurement": "glycan array binding signal (z-score)", "setting": "[3]", "result": 1.27},
      {"measurement": "glycan array binding signal (z-score)", "setting": "[4]", "result": -0.148},
      {"measurement": "glycan array binding signal (z-score)", "setting": "[5]", "result": 0.35},
      {"measurement": "glycan array binding signal (z-score)", "setting": "[6]", "result": -0.381},
      {"measurement": "glycan array binding signal (z-score)", "setting": "[7]", "result": 0.763},
      {"measurement": "glycan array binding signal (z-score)", "setting": "[8]", "result": 1.01},
      {"measurement": "glycan array binding signal (z-score)", "setting": "[9]", "result": 0.318},
      {"measurement": "glycan array binding signal (z-score)", "setting": "[10]", "result": 0.405},
      {"measurement": "glycan array binding signal (z-score)", "setting": "[11]", "result": -1.36},
      {"measurement": "glycan array binding signal (z-score)", "setting": "[12]", "result": 0.611},
      {"measurement": "glycan array binding signal (z-score)", "setting": "[13]", "result": -1.13},
      {"measurement": "glycan array binding signal (z-score)", "setting": "[14]", "result": 0.358},
      {"measurement": "glycan array binding signal (z-score)", "setting": "[15]", "result": 0.743},
      {"measurement": "glycan array binding signal (z-score)", "setting": "[16]", "result": -0.475},
      {"measurement": "glycan array binding signal (z-score)", "setting": "[17]", "result": -0.01},
      {"measurement": "glycan array binding signal (z-score)", "setting": "[18]", "result": 3.21},
      {"measurement": "glycan array binding signal (z-score)", "setting": "[19]", "result": 0.697},
      {"measurement": "glycan array binding signal (z-score)", "setting": "[20]", "result": -0.773},
      {"measurement": "glycan array binding signal (z-score)", "setting": "[21]", "result": 0.694},
      {"measurement": "glycan array binding signal (z-score)", "setting": "[22]", "result": -0.376},
      {"measurement": "glycan array binding signal (z-score)", "setting": "[23]", "result": -0.823},
      {"measurement": "glycan array binding signal (z-score)", "setting": "[24]", "result": 0.42},
      {"measurement": "glycan array binding signal (z-score)", "setting": "[25]", "result": -1.92},
      {"measurement": "glycan array binding signal (z-score)", "setting": "[26]", "result": -1.79},
      {"measurement": "glycan array binding signal (z-score)", "setting": "[27]", "result": 0.241},
      {"measurement": "glycan array binding signal (z-score)", "setting": "[28]", "result": 0.15},
      {"measurement": "glycan array binding signal (z-score)", "setting": "[29]", "result": -0.25},
      {"measurement": "glycan array binding signal (z-score)", "setting": "[30]", "result": -0.442},
      {"measurement": "glycan array binding signal (z-score)", "setting": "[31]", "result": -1.14},
      {"measurement": "glycan array binding signal (z-score)", "setting": "[32]", "result": -1.06},
      {"measurement": "glycan array binding signal (z-score)", "setting": "[33]", "result": -0.594},
      {"measurement": "glycan array binding signal (z-score)", "setting": "[34]", "result": 1.06},
      {"measurement": "glycan array binding signal (z-score)", "setting": "[35]", "result": 0.396},
      {"measurement": "glycan array binding signal (z-score)", "setting": "[36]", "result": 0.857},
      {"measurement": "glycan array binding signal (z-score)", "setting": "[37]", "result": -0.393},
      {"measurement": "glycan array binding signal (z-score)", "setting": "[38]", "result": -0.504},
      {"measurement": "glycan array binding signal (z-score)", "setting": "[39]", "result": -0.383},
      {"measurement": "glycan array binding signal (z-score)", "setting": "[40]", "result": -0.222},
      {"measurement": "glycan array binding signal (z-score)", "setting": "[41]", "result": -1.3},
      {"measurement": "glycan array binding signal (z-score)", "setting": "[42]", "result": 0.21},
      {"measurement": "glycan array binding signal (z-score)", "setting": "[43]", "result": 2.09},
      {"measurement": "glycan array binding signal (z-score)", "setting": "[44]", "result": 0.702},
      {"measurement": "glycan array binding signal (z-score)", "setting": "[45]", "result": -1.01}
    ]}
  ]
}
